The nature of the assay: qHTS Assay to Find Inhibitors of Chronic Active B-Cell Receptor Signaling. As to conditions: ABC-DLBCL IkBa-CBG/CBR reporter, luminescence ratio (green luciferase fused to IkBa over red control in TMD8 lymphoma cells), 4 h. The method, boiled down: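 Cell line TMD8 (human ABC DLBCL), stably expressing tet-inducible CBG68-IkBa fusion and CBR; IMDM/0.5% FBS; cpd up to 46 uM; dox induction, 4 h, 37C/5% CO2; dual luminescence; green/red ratio; MG132 control.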
A general note: In qHTS, concentration-response curves come from the screen itself.

[1] abbreviates: measured here: CBR red luminescence, cell number.
Setting [2] is: measured here: IkBa-CBG green luminescence.

A word on the AC50: it is the concentration giving half of the maximal activity seen.

Some of the results follow. The main result of the screen is listed elsewhere. These columns were measured beside it and carry no call. Most of these compounds were active or inconclusive in the main read-out, so they are no random draw. The note in brackets gives the kind of curve behind each potency; many fits are weak.

Turning to `CC12CCC(C/C1=N\OC(=O)c1ccc(F)cc1)C2(C)C` (stereo not drawn), the AC50 under setting [1] is 4.11 µM [rising, full curve, poor fit].

For the compound `COC(=O)c1ccc(C(=O)OC)c(NC(=O)CN(c2ccccc2)S(=O)(=O)N(C)C)c1`, the AC50 under setting [1] was 1.41 µM [falling, full curve, poor fit]. As for `COCCCN(C(=O)CSCC(=O)Nc1cccc(C)c1)c1c(N)n(Cc2ccccc2)c(=O)[nH]c1=O`, the AC50 under setting [1] is 6.51 µM [rising, single point].

`CCNC(=O)c1sc2cc(C)ccc2c1Cl`: the AC50 by setting is: under setting [1], 3.98 µM [rising, full curve]; under setting [2], 12.6 µM [falling, partial curve, poor fit]. On to `CCc1ccc(NC(=O)c2nc(S(=O)(=O)Cc3ccccc3)ncc2Cl)cc1`, for which the AC50 under setting [1] was 3.98 µM [falling, full curve].

`O=C(CSc1nnc(COc2ccc(Br)cc2)o1)N1CCOCC1`: the AC50 under setting [1] is 1.58 µM [falling, partial curve].

For the compound `C=C(C)n1c(=O)n(Cc2ccc(C)cc2)c2ccccc21`, the AC50 under setting [1] is 35.5 µM [rising, single point].

`CCOC(=O)c1[nH]c2cc(OC)c(OC)cc2c1NC(=O)C(C)N1CCN(Cc2ccccc2)CC1` (stereo not drawn): under setting [1], the AC50 is 0.13 µM [rising, partial curve, poor fit].

Consider `CCC(=O)NCCc1nc2cc(NC(=O)c3cccc(Br)c3)ccc2n1C`, for which, under setting [1], the AC50 was 7.08 µM [falling, partial curve].

Regarding `COc1cccc(NC(=O)C2CCCN2C(=O)Nc2ccccc2F)c1` (stereo not drawn), the AC50 under setting [1] was 35.5 µM [rising, single point].

`O=[N+]([O-])c1ccc(Cl)cc1CN1CCCCCC1`: the AC50 under setting [1] was 12.6 µM [falling, partial curve]. As for `Cc1ccc(/C=N/n2c(-c3cccc(Cl)c3)n[nH]c2=S)o1`, under setting [1], the AC50 is 0.316 µM [falling, full curve, poor fit]. Still for that read-out and setting: as for `O=C(Nc1ccn(Cc2c(F)c(F)cc(F)c2F)n1)c1ccc(COc2cc(Cl)ccc2Cl)o1`, the figure is 9.2 µM [rising, partial curve, poor fit]; as for `COC(=O)CN(C#N)c1nc(N(C)C)nc(N(C)C)n1`, 2.82 µM [falling, partial curve, poor fit]. In the case of `Cc1ccc(C(=O)Nc2ccc3c(c2)nc2n3CCSC2)cc1`, under setting [1], the AC50 is 35.5 µM [falling, single point]. Turning to `COc1ccc(C2=NN(C(=O)CSc3nc4ccccc4s3)C(c3ccc(F)cc3)C2)cc1` (stereo not drawn), the AC50 under setting [1] was 14.6 µM [rising, partial curve]. The same measure, in the same setting: as for `CCOc1ccc(OCC)c(-c2c(=O)n(OCc3ccccc3Br)c3ccccc3[n+]2[O-])c1`, the figure is 35.5 µM [falling, single point]; as for `Cc1nc(NC(=O)c2ccc(F)cc2)sc1C(=O)Nc1ccc2c(c1)CCC2`, 8.91 µM [falling, partial curve]. Take `C=C(C)COc1ccc(-c2[nH]ncc2-c2ccccc2)c(O)c1`: the AC50 under setting [1] is 22.4 µM [rising, single point]. The same measure, in the same setting: as for `COc1cc(-c2nc(-c3ccc(-c4ccccc4)nc3OC)no2)cc(OC)c1OC`, the figure is 11.2 µM [rising, partial curve, poor fit]; as for `O=S(=O)(c1ccc(F)cc1)c1nc(-c2ccco2)oc1Nc1ccc(F)cc1`, 8.2 µM [falling, partial curve, poor fit].

For the compound `COC(=O)CCNS(=O)(=O)c1ccc2ccccc2c1`, under setting [1], the AC50 was 9.2 µM [rising, partial curve, poor fit].

For `O=c1[nH]c(-c2cccnc2)nc2ccccc12`, under setting [1], the AC50 is 7.31 µM [rising, partial curve, poor fit]. Turning to `Oc1c(CN2CCCC(C(F)(F)F)C2)cc(Cl)c2ccccc12` (stereo not drawn), the AC50 under setting [1] is 25.1 µM [falling, single point]. As to `CCC1CCCCN1C(=O)c1c[nH]c2ccc(S(=O)(=O)N(C)c3ccc(Cl)cc3)cc2c1=O` (stereo not drawn), under setting [1], the AC50 is 9.2 µM [falling, single point]. On to `C=C(C)COc1ccc(-c2[nH]ncc2Oc2cccc(OC)c2)c(O)c1`, for which the AC50 under setting [1] is 2.82 µM [rising, full curve, poor fit].

Turning to `CCC1CCCCN1C(=S)NC(=O)c1cccc([N+](=O)[O-])c1` (stereo not drawn), the AC50 under setting [1] is 0.794 µM [rising, full curve, poor fit]. On to `COc1ccc(/C=C/C(=O)Nc2ccc(-n3nncc3-c3ccc(OC)c(OC)c3)cc2)cc1OC`, for which the AC50 by setting is: under setting [1], 18.4 µM [rising, partial curve]; under setting [2], 18.4 µM [falling, partial curve]. With `O=Cc1cn(-c2ccccc2)nc1-c1ccc2c(c1)OCCO2`, the AC50 under setting [1] is 0.517 µM [rising, full curve]. Turning to `Clc1ccc(-n2ncc3c(NC4CCCC4)ncnc32)cc1`, the AC50 under setting [1] was 7.08 µM [falling, partial curve]. For the compound `CC(C)CC(NC(=O)c1ccccc1NC(=O)c1ccccc1)C(=O)O` (stereo not drawn), the AC50 under setting [1] was 35.5 µM [falling, single point]. In the case of `Cc1cc(C(c2ccc(C)o2)c2ccc(C)o2)c(O)c([N+](=O)[O-])c1`, the AC50 under setting [1] was 20.6 µM [falling, single point].

Regarding `S=C(NCCc1ccccc1)Nc1ccccn1`, the AC50 under setting [1] is 13 µM [rising, partial curve, poor fit].

Regarding `O=C(OCc1c(Cl)cccc1Cl)c1cccnc1`, the AC50 under setting [1] is 4.11 µM [rising, full curve, poor fit]. In the case of `NS(=O)(=O)c1cc2c(cc1Cl)NC(CSCc1ccccc1)=NS2(=O)=O`, the AC50 under setting [1] is 23.1 µM [rising, single point]. Turning to `Cc1csc(NC(=O)c2cccn2C)n1`, the AC50 under setting [1] was 3.16 µM [rising, single point] and the AC50 under setting [2] is 7.08 µM [rising, partial curve, poor fit]. Regarding `C/C(=N\N)c1c(-c2ccccc2)c2cc(C)ccc2[nH]c1=O`, the AC50 under setting [1] is 17.8 µM [rising, single point]. Still for that read-out and setting: the value for `Cc1ccn2c(C(=O)N/N=C\c3ccc4c(c3)OCO4)c(C)nc2c1` was 3.26 µM [rising, full curve]; that for `CCN(CC)c1ccc(/C=N/NC(=O)c2ccc3c(c2)OCCO3)cc1` was 5.01 µM [falling, full curve]; that for `COc1cc(C)c(N)cc1C(C)C` was 29.1 µM [rising, single point].

(Values after PubChem BioAssay AID493014 (National Center for Advancing Translational Sciences (NCATS), 2011).)
